The data set is described as follows: Ejection force of compressed tablets (instrumented tablet press). The following applies: Example 8: 1.0% lubricant, FIG. 21.

These results are taken from US20230201124A1, “LUBRICANT FOR PHARMACEUTICALS AND NUTRACEUTICALS” (JRS Pharma GmbH & Co. KG, priority 2021, published 2023).

As to magnesium stearate, the “change of ejection forces after 60 minutes of blending” value is “slightly decreased”.
